Patent US20080292576A1, “METHOD FOR IDENTIFYING HAIR CONDITIONER-RESISTANT HAIR-BINDING PEPTIDES AND HAIR BENEFIT AGENTS THEREFROM” (E.I. du Pont de Nemours and Co., priority 2005, published 2008)

assay: Biopanning of phage display peptide libraries against hair with undiluted hair conditioner incubation; format: binding, human; settings: number of identical sequences out of 95 random sequenced clones after the third biopanning round; undiluted Dove Extra Volume Conditioner
Method: A sample containing approximately 4×10^10 pfu of the phage from the library of interest was used in each experiment. The sample of the phage library was first pretreated to remove skin and plastic-binding clones. To remove skin-binding clones, the sample of the phage library was incubated for 1 h at room temperature with a sample of pig skin in a unique pig skin-bottom 96-well apparatus, which was created by applying one layer of Parafilm under the top 96-well block of a Minifold I Dot-Blot System (Schleicher & Schuell, Inc., Keene, N.H.), adding a layer of hairless pig skin on top of the Parafilm® cover, and then tightening the apparatus. The pig skin was purchased from a local supermarket and stored at −80° C. Before use, the skin was placed in deionized water to thaw, and then blotted dry using a paper towel. The surface of the skin was wiped with 90% isopropanol, and then rinsed with deionized water. After exposure to the pig skin, the phage sample was transferred to a polystyrene, 6-well cell culture cluster (Corning Inc., Acton, Mass.; Cat. No. 3526) and incubated for 1 h at room temperature to remove plastic-binding clones.
The hair samples used were 6-inch (15 cm) long pieces of medium brown human hairs, obtained from International Hair Importers and Products (Bellerose, N.Y.). The hairs were placed in 90% isopropanol for 30 min at room temperature and then washed 5 times for 10 min each with deionized water. The hairs were air-dried overnight at room temperature. The hairs were cut to a length of 1 cm and 10-20 hairs were placed into a microcentrifuge tube.
The phage sample, pretreated as described above to remove skin and plastic-binding clones, was added to the tube containing the hair sample and the mixture was incubated at room temperature for 1 h. The phage solution was removed and the hair sample was incubated in undiluted hair conditioner (Dove® Extra Volume Conditioner; Unilever, obtained from a local supermarket) for 5 min at room temperature. The hairs were then washed six times with TBST-0.5% buffer. After the washes, the hairs were transferred to a new tube, elution buffer, consisting of 1 mg/mL BSA in 0.2 M glycine-HCl, pH 2.2, was added, and the hair was incubated for 10 min. Then, neutralization buffer consisting of 1 M Tris-HCl, pH 9.2, was added to the tube. The phages that were eluted and those still bound to the hairs were amplified by adding fresh host cells (E. coli ER2338). The amplified and isolated phage was contacted with a fresh hair sample and the biopanning procedure was repeated two more times for each library.
After the third biopanning round, random single phage clones were selected and single plaque lysates were prepared following the manufacture's instructions (New England Biolabs) and the single stranded phage genomic DNA was purified using the QIAprep Spin M13 Kit (Qiagen; Valencia, Calif.) and sequenced at the DuPont Sequencing Facility using −96 gill sequencing primer (5′-[…]-3′), given as SEQ ID NO:7. […] The amino acid sequences of the hair conditioner-resistant, hair-binding phage-peptides, identified from the three phage libraries after three biopanning rounds, are given in Table 1.

Row | Sequence | Frequency
1 | SVSVGMKPSPRP (Hair conditioner-resistant hair-binding peptide) [HCP.9] | 16
2 | QQHKVHHQNPDRSTQDAHHS (Hair conditioner-resistant hair-binding peptide) [HCP.2] | 15
3 | HHGTHHNATKQKNHV (Hair conditioner-resistant hair-binding peptide) [HCP.5] | 36
4 | THSTHNHGSPRHTNADAGNP (Hair conditioner-resistant hair-binding peptide) [HCP.1] | 39
5 | STLHKYKSQDPTPHH (Hair conditioner-resistant hair-binding peptide) [HCP.6] | 17
